# Laboratory results reported in patent publication US5169833A (G. D. Searle & Co., priority 1991, dated 1992).
# Assay: general procedure: Boc solid-phase peptide synthesis; Merrifield resin; p-methylbenzhydrylamine (pMBHA) resin (~0.5 mequiv/g)
# Conditions: for final HPLC purity: whole synthesis, analytical HPLC; for oxidative folding yield: oxidative folding step
substance,measurement,setting,value
"2,6-dimethyl-L-tyrosyl-3-mercapto-D-valylglycyl-L-phenylalanyl-3-mercapto-D-valine, cyclic (2→5)-disulfide",final HPLC purity,,greater than 99%
"3-mercapto-D-valylglycyl-L-phenylalanyl-3-mercapto-D-valine, cyclic (2→5)-disulfide, methyl ester, monohydrochloride",step yield,late stage modification step,86%
"-dimethyl-L-tyrosyl-3-mercapto-D-valylglycyl-L-phenylalanyl-3-mercapto-D-valine, cyclic (2→5)-disulfide, methyl ester",step yield,late stage modification step,100%
"2,6-dimethyl-L-tyrosyl-3-mercapto-D-valylglycyl-4-chloro-L-phenylalanyl-3-mercapto-D-valine, cyclic (2→5)-disulfide, phenylmethyl ester, monohydrochloride",step yield,"late stage modification step, HCl",74%
"2,6-dimethyl-L-tyrosyl-3-mercapto-D-valylglycyl-4-fluoro-L-phenylalanyl-3-mercapto-D-valine, cyclic (2→5)-disulfide",final HPLC purity,,greater than 99%
"N-[(1,1-dimethylethoxy)carbonyl]-2,6-dimethyl-L-tyrosyl-3-mercapto-D-valylglycyl-L-phenylalanyl-3-mercapto-D -valine, cyclic (2→5)-disulfide, methyl ester",step yield,coupling step,42%
"3-mercapto-D-valylglycyl-4-chlorophenylalanyl-3-mercapto-D-valine, cyclic (2→5)-disulfide, phenylmethyl ester, monohydrochloride",step yield,late stage modification step,99%
"N-[(1,1-dimethylethoxy)carbonyl]-3-mercapto-D-valylglycyl-4-chlorophenylalanyl-3-mercapto-D-valine, cyclic (2→5)-disulfide, phenylmethyl ester",oxidative folding yield,,36%
"2,6-dimethyl-L-tyrosyl-3-mercapto-D-valylglycyl-L-phenylalanyl-3-mercapto-L-valine, cyclic (2→5)-disulfide",final HPLC purity,,greater than 99%
"N-[(1,1-dimethylethoxy)carbonyl]-3-mercapto-D-valylglycyl-L-phenylalanyl-3- mercapto-D-valine, cyclic (2→5)-disulfide methyl ester",oxidative folding yield,,54%
"N-[(1,1-dimethylethoxy)carbonyl]-2,6-dimethyl-L-tyrosyl-3-mercapto-D-valylglycyl-4-chloro-L-phenylalanyl-3-mercapto-D-valine, cyclic (2→5)-disulfide, phenylmethyl ester",step yield,coupling step,48%

# One purity is given for all peptides; the source may state it once.
